The target in this assay is T1, scavenger receptor class BI (SR-BI) (mouse (endogenous in 3T3-L1)) (UniProt Q61009).
T1 sequence: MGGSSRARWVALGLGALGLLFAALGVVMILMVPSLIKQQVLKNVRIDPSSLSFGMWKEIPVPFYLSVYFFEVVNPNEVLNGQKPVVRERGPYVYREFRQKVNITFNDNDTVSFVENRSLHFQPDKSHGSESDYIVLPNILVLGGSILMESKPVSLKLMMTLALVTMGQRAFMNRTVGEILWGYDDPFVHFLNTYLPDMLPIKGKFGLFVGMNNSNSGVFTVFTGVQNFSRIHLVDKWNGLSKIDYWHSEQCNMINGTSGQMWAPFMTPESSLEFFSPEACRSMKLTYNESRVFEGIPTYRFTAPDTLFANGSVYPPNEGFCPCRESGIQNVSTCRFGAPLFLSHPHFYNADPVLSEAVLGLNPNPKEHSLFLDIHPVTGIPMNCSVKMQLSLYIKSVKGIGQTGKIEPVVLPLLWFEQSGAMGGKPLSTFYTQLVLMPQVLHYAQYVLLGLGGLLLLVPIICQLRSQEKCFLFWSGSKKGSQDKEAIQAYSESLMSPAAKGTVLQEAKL
The assay is described as follows: co-IP.

Protein sequences, listed by entry. Tags and fused reporters are not part of them. Residues count along the entry.
UniProt Q8R4W6, residues 23-414: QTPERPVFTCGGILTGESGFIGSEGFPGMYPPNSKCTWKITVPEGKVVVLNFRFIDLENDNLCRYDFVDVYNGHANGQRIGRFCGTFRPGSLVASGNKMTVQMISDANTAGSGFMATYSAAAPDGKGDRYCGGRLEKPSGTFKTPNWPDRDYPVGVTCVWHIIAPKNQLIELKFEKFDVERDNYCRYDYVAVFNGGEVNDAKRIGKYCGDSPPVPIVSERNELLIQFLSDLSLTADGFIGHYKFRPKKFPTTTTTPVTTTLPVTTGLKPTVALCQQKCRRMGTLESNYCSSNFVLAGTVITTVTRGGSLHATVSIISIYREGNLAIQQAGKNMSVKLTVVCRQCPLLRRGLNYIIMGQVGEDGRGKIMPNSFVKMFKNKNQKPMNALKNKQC

Results are given in words; binding and its absence hold for the method and conditions named. In cells and extracts the contact can be indirect. Some binding calls cover weakened binding; strength is not graded here.

With “procollagen endopeptidase enhancer 2 (PCPE2) (from UniProt Q8R4W6 23-414)”, the binding result is “binds”.

For the origin of these results see publication doi:10.1101/298208 (bioRxiv, 2018).
